Results are given in words; binding and its absence hold for the method and conditions named. Binding seen in cells or lysates may run through a third protein. Some binding calls cover weakened binding; strength is not graded here.

Sequences of proteins named here, by UniProt entry; tags and fusion partners are left off.
UniProt P9WIA1: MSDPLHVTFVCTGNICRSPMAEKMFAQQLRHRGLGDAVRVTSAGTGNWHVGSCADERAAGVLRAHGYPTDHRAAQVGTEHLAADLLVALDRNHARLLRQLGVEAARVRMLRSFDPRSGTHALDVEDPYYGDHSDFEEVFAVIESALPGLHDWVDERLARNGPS
UniProt Q96LA8: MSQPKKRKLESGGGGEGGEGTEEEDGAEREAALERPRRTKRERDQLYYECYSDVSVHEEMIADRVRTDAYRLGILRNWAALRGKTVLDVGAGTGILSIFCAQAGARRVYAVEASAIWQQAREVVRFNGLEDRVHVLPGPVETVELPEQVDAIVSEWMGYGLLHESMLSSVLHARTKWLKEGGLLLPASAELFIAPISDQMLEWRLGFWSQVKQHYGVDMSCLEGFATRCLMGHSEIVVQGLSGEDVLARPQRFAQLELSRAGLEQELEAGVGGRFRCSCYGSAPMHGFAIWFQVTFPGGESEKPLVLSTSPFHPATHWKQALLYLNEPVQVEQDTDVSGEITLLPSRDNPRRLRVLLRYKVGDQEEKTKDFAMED

The assay addresses GFP-PtpA (Mycobacterium tuberculosis) (UniProt P9WIA1). In words: co-IP.

As to “Flag-PRMT6 (protein arginine methyltransferase 6) (from UniProt Q96LA8 1-375)”, the binding entry is on record as “binds”.

Values taken from PMC10023711.
